Source: paper PMC6155126
Construct, isoform or probe ends are uncertain for at least one entry. At least one verdict was read from the data and is not stated in words by the source.

Test system: Ku70/80 (Ku70 subunit) + Ku70/80 (Ku80 subunit) + Pol λ WT
Assay: EMSA supershift
Settings: 20 nM Ku, 50 nM Pol λ; 5'-phosphate on the 13-mer; EMSA: 50 mM Tris-HCl pH 7.5, 100 mM KCl, 2.5 mM MgCl2, 1 mM DTT, 4% glycerol, 0.05% Triton X-100, 0.1 mg/ml BSA, 10-20 nM DNA, 30 min at 25 °C; 4-5% native PAGE; recombinant protein; protein details: FLAG,FLAG,FLAG; label: IRDye 700 at 5' end of S5

## ACTGGCCGTCGTTCTATTGTACTCACTGTGATC / GATCACAGTGAGTAC / AACGACGGCCAGT [5nt-gapped dsDNA 33-mer]
  binding result: binds
